Assay results taken from the supplement of paper PMC10727501.
The list shows a part of the results. Single values are uncertain here, since repeats match poorly.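 Researchers measured free-swimming zebrafish larvae's O-bend response probability to dark flashes (naive: first five; training: remaining flashes of four 60-flash blocks; test: later 60-flash block) and OMR turning toward alternating leftward/rightward LED motion. Six treated larvae were compared to sixty 0.1% DMSO controls, with |SSMD|≥2 marking a hit.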

Tests used:
Settings in all cases: 10 µM; pre-incubation: 30-90 min
[1] = test system: Danio rerio larvae (5 dpf, TLF); experiment: OMR-Perf (SSMD vs DMSO vehicle); higher = higher than vehicle (e.g. higher dark-flash O-bend response probability, or better optomotor performance)
[2] = test system: Danio rerio larvae (5 dpf, TLF); experiment: Prob-Test (SSMD vs DMSO vehicle); higher = higher than vehicle (e.g. higher dark-flash O-bend response probability, or better optomotor performance)
[3] = test system: Danio rerio larvae (5 dpf, TLF); experiment: Prob-Naive (SSMD vs DMSO vehicle); higher = higher than vehicle (e.g. higher dark-flash O-bend response probability, or better optomotor performance)
[4] = test system: Danio rerio larvae (5 dpf, TLF); experiment: Prob-Train (SSMD vs DMSO vehicle); higher = higher than vehicle (e.g. higher dark-flash O-bend response probability, or better optomotor performance)

Row | SMILES | OMR-Perf [1] | Prob-Test [2] | Prob-Naive [3] | Prob-Train [4]
1 | O=C(O)c1cn(C2CC2)c2cc(N3CCNCC3)c(F)cc2c1=O [Ciprofloxacin (Cipro)] | 0.0265 | -0.0553 | -0.142 | -0.39
2 | O=C(O)c1cc(/N=N/c2ccc(S(=O)(=O)Nc3ccccn3)cc2)ccc1O [Sulfasalazine] | 0.54 | 0.354 | 0.26 | 0.471
3 | CN(Cc1cc(Br)cc(Br)c1N)C1CCCCC1.Cl [Bromhexine HCl] | -0.699 | -0.968 | -0.219 | -0.743
4 | CC(C)N(C[C@H]1O[C@@H](n2cnc3c(N)ncnc32)[C@H](O)[C@@H]1O)[C@H]1C[C@@H](CCc2nc3cc(C(C)(C)C)ccc3[nH]2)C1 | -0.41 | 0.575 | -0.0813 | 0.381
5 | CCCC(C)NC(=O)c1ccc(Cl)c(Cl)c1 (stereo unspecified) | -1.19 | -1.67 | -3.49 | -2.52
6 | Nc1ncnc2nc[nH]c12.Nc1ncnc2nc[nH]c12.O=S(=O)(O)O [Adenine sulfate] | 0.772 | 0.0828 | -0.106 | 0.0816
7 | Cc1cc([C@@H](C)Nc2ccccc2C(=O)O)c2nc(N3CCOCC3)cc(=O)n2c1 | -0.0339 | 0.388 | 0.564 | 0.151
8 | OCC(O)CN1CCN(c2ccccc2)CC1 (stereo unspecified) [Dropropizine] | -0.493 | -0.217 | 0.355 | -0.0282
9 | Cc1cnc(-c2cc(N3CCN(C(=O)CCS(C)(=O)=O)CC3)ncc2Cl)c(C)c1 | -0.337 | -0.381 | -0.243 | -0.303
10 | N#Cc1cc(CN2CCC(Nc3ncnc4sc(Cl)cc34)CC2)ccc1F.O=C(O)/C=C\C(=O)O | -0.875 | -0.703 | 0.0551 | -1.38
11 | CC[C@@H]1OC(=O)[C@H](C)[C@@H](O[C@H]2C[C@@](C)(OC)[C@@H](O)[C@H](C)O2)C(C)[C@@H](O[C@@H]2O[C@H](C)C[C@H](N(C)C)[C@H]2O)[C@](C)(O)C[C@@H](C)CN(C)[C@H](C)[C@@H](O)[C@]1(C)O.O.O (stereo partly specified) [Azithromycin Dihydrate] | 0.185 | -0.287 | -0.456 | 0.133
12 | CC1=C(/C=C/C(C)=C/C=C/C(C)=C/C=C/C=C(C)/C=C/C=C(C)/C=C/C2=C(C)CCCC2(C)C)C(C)(C)CCC1 [Beta Carotene] | 0.103 | -0.24 | 0.454 | 0.11
13 | CCc1c(O)cc(O)c(C(=O)c2ccc(OCCN3CCOCC3)c(OC)c2)c1CC(=O)N(CCOC)CCOC | 0.336 | 0.059 | -0.335 | 0.0361
14 | CN(C)CCc1c[nH]c2ccc(Cn3cncn3)cc12.O=C(O)c1ccccc1 [Rizatriptan Benzoate] | 0.399 | 0.31 | 0.511 | 0.552
15 | CN(C)CC/C=C1\c2ccccc2COc2ccc(CC(=O)O)cc21.Cl [Olopatadine HCl] | -0.0409 | 0.0237 | 0.644 | -0.0738
16 | CCN1CCN(c2cc3c(cc2F)c(=O)c(C(=O)O)cn3C2CC2)CC1 [Enrofloxacin] | -0.0564 | -0.199 | 0.204 | 0.24
17 | NC(=O)Cc1cccc(C(=O)c2ccccc2)c1N [Nepafenac] | -0.521 | -0.148 | 0.147 | -0.441
18 | Nc1ccc(C(=O)NCC(=O)[O-])cc1.[Na+] [Sodium 4-aminohippurate Hydrate] | -0.0912 | 0.127 | 0.134 | 0.218
19 | COc1cc2nc(N3CCN(C(=O)c4ccco4)CC3)nc(N)c2cc1OC.Cl [Prazosin HCl] | -0.651 | -0.716 | -0.268 | -0.732
20 | CS(=O)(=O)O.OC(CCN1CCCCC1)(c1ccccc1)c1ccccc1 [Pridinol Methanesulfonate] | -0.828 | -0.547 | -0.119 | -0.345
21 | CN(C)Cc1cccc(N/C(=C2\C(=O)Nc3cc(C(=O)N(C)C)ccc32)c2ccccc2)c1 | 0.199 | -0.133 | -0.216 | 0.109
22 | N#Cc1ccc(C(c2ccc(C#N)cc2)n2cncn2)cc1 [Letrozole] | 1.26 | 0.52 | 0.0184 | 0.269
23 | CC(C)[C@H](C(=O)Nc1ccc(C(=O)NO)cc1)c1ccccc1 | 0.403 | 0.892 | 0.146 | 0.621
24 | Cc1cn([C@H]2O[C@@H](CO)[C@H](O)[C@@H]2F)c(=O)[nH]c1=O [Clevudine] | 0.485 | 0.465 | 0.402 | 0.528

One compound at a time (already shown):
`NC(=O)Cc1cccc(C(=O)c2ccccc2)c1N` [Nepafenac] in the list: OMR-Perf [1]: -0.521; Prob-Test [2]: -0.148; Prob-Naive [3]: 0.147; Prob-Train [4]: -0.441
`CCN1CCN(c2cc3c(cc2F)c(=O)c(C(=O)O)cn3C2CC2)CC1` [Enrofloxacin] in the list: OMR-Perf [1]: -0.0564; Prob-Test [2]: -0.199; Prob-Naive [3]: 0.204; Prob-Train [4]: 0.24
